Consider one substance from article PMC10426395.

By UniProt entry, the sequences of proteins in these tests, tags left out.
UniProt Q9UKT9: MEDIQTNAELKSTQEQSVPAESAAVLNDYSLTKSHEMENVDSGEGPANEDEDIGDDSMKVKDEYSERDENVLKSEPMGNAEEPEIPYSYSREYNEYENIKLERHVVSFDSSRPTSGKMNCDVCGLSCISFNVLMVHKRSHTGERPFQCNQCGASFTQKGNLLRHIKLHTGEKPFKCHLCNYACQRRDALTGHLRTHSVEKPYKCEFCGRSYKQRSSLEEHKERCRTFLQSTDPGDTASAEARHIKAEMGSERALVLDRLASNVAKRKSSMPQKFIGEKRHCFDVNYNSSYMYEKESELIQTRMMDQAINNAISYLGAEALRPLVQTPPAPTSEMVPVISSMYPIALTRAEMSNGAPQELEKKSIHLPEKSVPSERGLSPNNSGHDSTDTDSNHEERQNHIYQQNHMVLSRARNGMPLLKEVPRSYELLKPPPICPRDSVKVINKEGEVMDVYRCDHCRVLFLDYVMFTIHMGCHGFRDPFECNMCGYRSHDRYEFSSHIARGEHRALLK

No constants are given. Whether binding was seen depends on the method and setting. Binding seen in cells or lysates may run through a third protein. Some binding calls cover weakened binding; strength is not graded here.

In the experiment the target is c-FOS (human (endogenous in MM.1S and KMS12-BM)) (UniProt P01100). In words: co-IP; nuclear extracts of MM.1S and KMS12-BM cells; immunoprecipitated with anti-c-FOS antibody on protein A magnetic beads (isotype-matched IgG as control); immunoblot for IKZF1, IKZF3, c-FOS, c-JUN, IRF4.

For IKZF3 (from UniProt Q9UKT9 1-509), the binding entry is recorded as “binds”.
